In article PMC12811337 one finds binding data, which are given here for eleven molecules.

Amino acid sequences for entries named in this document (tags omitted).
UniProt G5EFM9: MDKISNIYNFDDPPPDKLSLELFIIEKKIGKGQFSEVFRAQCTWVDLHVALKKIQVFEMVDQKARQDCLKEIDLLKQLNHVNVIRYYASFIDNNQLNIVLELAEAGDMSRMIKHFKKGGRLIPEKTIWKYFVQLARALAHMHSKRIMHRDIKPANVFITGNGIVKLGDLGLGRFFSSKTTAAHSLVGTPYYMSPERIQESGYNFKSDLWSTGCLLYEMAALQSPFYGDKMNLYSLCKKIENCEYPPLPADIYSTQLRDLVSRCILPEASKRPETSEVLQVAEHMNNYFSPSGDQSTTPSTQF
UniProt G5EDY0: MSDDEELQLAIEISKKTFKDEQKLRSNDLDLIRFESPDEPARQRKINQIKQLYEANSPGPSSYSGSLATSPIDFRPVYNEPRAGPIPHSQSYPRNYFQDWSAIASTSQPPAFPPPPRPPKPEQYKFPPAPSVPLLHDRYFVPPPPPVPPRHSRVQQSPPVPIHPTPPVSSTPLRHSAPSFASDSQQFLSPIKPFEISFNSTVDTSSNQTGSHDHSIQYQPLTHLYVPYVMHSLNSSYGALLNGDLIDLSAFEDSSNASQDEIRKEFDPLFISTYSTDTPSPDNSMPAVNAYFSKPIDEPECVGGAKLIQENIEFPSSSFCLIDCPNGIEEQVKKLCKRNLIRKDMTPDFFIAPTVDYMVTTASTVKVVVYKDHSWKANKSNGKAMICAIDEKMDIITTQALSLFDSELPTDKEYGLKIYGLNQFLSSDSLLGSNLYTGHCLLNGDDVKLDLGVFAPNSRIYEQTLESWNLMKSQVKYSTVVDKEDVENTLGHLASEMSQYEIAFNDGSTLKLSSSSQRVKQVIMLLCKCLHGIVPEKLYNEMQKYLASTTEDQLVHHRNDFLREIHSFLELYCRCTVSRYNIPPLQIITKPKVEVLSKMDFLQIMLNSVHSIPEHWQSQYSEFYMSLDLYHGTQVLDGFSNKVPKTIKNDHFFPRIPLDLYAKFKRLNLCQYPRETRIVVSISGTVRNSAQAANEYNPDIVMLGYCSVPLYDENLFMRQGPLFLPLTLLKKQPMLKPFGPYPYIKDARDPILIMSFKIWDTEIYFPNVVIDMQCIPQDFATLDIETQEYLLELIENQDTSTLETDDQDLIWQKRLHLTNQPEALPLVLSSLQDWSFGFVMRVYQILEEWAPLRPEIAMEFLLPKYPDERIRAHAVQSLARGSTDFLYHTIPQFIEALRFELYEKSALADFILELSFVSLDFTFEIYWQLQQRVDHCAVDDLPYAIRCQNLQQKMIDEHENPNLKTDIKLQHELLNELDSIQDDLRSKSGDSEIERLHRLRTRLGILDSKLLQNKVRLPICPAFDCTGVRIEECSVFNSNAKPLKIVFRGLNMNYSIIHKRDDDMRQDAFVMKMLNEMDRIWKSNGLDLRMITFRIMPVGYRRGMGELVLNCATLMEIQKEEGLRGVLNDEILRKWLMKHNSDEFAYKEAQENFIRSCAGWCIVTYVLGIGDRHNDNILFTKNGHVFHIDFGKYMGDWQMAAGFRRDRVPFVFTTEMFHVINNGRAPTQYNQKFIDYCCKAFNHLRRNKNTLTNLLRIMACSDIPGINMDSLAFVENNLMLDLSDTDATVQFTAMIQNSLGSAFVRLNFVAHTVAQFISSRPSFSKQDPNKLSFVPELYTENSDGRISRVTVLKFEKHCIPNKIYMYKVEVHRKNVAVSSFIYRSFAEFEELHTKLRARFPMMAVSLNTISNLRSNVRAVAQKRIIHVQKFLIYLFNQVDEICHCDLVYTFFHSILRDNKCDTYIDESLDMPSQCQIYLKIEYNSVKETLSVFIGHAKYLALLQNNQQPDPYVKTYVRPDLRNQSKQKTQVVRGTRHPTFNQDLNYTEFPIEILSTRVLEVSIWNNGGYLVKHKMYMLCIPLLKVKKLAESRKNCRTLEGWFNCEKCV

Experiment in all cases: proximity labelling; endogenously expressed bait–TurboID fusions label proximal proteins in vivo in mixed-stage C. elegans grown at 25 °C without added biotin; RIPA lysate, 1 h at room temperature on streptavidin beads, stringent washes, on-bead trypsin digestion, DIA LC-MS/MS; enrichment against N2 (no TurboID), Filter-1 and Filter-2 with the mNG::TurboID control; Exp 1–8 taken together (Exp 3 with depletion of His10-tagged carboxylases and AX7884 as control, Exp 5 DDA, Exp 7 with auxin for 2 h, Exp 8 with N-terminal fusions)

Test [1] concerns the target T1, NEKL-2::TurboID (C. elegans) (UniProt O01775).
T1 sequence: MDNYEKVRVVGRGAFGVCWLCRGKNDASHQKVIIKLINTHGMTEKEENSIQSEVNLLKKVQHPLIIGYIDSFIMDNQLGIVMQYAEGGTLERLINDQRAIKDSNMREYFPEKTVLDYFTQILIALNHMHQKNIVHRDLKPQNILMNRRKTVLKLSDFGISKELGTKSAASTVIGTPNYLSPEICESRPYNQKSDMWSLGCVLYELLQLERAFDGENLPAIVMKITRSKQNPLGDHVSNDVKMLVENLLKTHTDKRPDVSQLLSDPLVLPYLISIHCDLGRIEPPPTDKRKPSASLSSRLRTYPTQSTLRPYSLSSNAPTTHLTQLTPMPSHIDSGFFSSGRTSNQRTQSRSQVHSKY

The target in test [2] is T2, TurboID::NEKL-2 (C. elegans) (UniProt O01775).
T2 sequence: T1 sequence

Test [3] has as its target MLT-3::TurboID (C. elegans).
Test [4] concerns the target T1, NEKL-2::TurboID (C. elegans). The source holds these as a separate data set.
In test [5] the target is NEKL-3::TurboID (C. elegans) (UniProt G5EFM9).

Where two headings read alike, the source gives them in different places. Results are given in words; binding and its absence hold for the method and conditions named. In cells and extracts the contact can be indirect. A yes stands for co-enrichment or nearness to the bait. Other partners may have been found.

EEA-1 (C. elegans): the binding result in test [1] is “binds”.
Still for that read-out and setting: then PIKI-1 (from UniProt G5EDY0 1-1607), with “binds”.
With MLT-2::TurboID (from UniProt Q17583), the binding result in test [1] and in test [2] was “binds” each time.
For the molecule MLT-4::TurboID (C. elegans), the binding result in test [1] is listed as “binds”.
On the same count and under the same terms, then MLT-3::TurboID (C. elegans), with “binds”.
With FCHO-1 (C. elegans), in test [1], the binding result is listed as “binds”.
Turning to “NEKL-3::TurboID (from UniProt G5EFM9 1-302)”, the binding result in test [1] is “binds”.

B1: NEKL-2::TurboID (protein, UniProt O01775 1-357)
chain: T1 sequence
Regarding B1, the binding entry in test [3] is “binds”.

B2: TAT-1 (protein, UniProt Q9U280 1-1139)
chain: MPTEARDNNRHIHLGKVRDPHHQHAQRFCSNRISTCKYNGFSFLPRFLYEQFRRYNNIFFLAIALLQQIPDVSPTGRYTTAVPFLIILSVSALKEIFEDVKRRRSDNKVNAFSVEILVDGHWIEKQWKDVSVGDFIRIDNDSLFPADLLLLASSEQQGMAYIETSNLDGETNLKIKQALDITSTMTSPEKLSQFESEITCEPPSRHVNEFNGNIEINGVARHFGIDQLLLRGARLKNTAWIFGAVIYTGHDSKLLMNSKRAPLKSGTIDVQTNYRIIFLFFVLVALALISATGSEIWRGNNIPQAWYLSFLEHDPKGSFLWGVLTFFILYNNLIPISLQVTLEVVRFFQAIYINNDIEMYDVNSDSCAIARTSNLNEELGQVKFIMSDKTGTLTRNVMKFKRLSIGSRNYGNNEDDEFADASLIEDYRQGDEHSTSILEVLKMMAVCHTVVPENKDGQLIYQSSSPDEAALVRGAASQSVSFHTRQPQKVICNVFGEDETIEILDVIDFTSDRKRMSVIVRDGAGGDIKLYTKGADTVIFERLEHGKEQEEAVEYCTEHLEDYASFGYRTLCFSMRHLTEQEYSQWAPEYKKAILAIDNRAKLLADAAEKLERNMILVGATAIEDKLQEWVPETIQALMAADIRVWMLTGDKRETAINIAHSCALCHTNTELLIVDKTTYEETYQKLEQFVARAIELEKQEKGFAMVIDGKSLLHALTGEARKHFGDLALRCHAVVCCRMSPMQKAEVVEMVRKLAKHVVLAIGDGANDVAMIQAANVGVGISGEEGLQAASASDYAIPRFHFLRRLLLVHGAWNHDRSVKVILYSFYKNICLYIIELWFAMFSAWSGQTIFERWTIGMFNVIFTAWPPVVLGLFDHPVPAEQIMKYPALYASFQNRAFSIGNFSLWIGLAIVHSLSLFFLTYATMEHQVVWDNGLTGGWLMLGNCAYTFVVATVCFKALLECDSWTWPVVVACIGSIGLWIVFVIVYSLVFPHIGGIGADMAGMAAIMMSSYTFWLALLFIPLATLLWDLVIKSLFTIAMPTPRELAVMYNKRTTSFNGFERLASYSSNVLENMRLLTSSLRGSTTGSTRSRTASEASLALAEQTRYGFAFSQDESSAVAQTELIRNVDSTREKPTGR
Turning to B2, the binding result in test [4] is “binds”.

B3: CDC-37 (protein, UniProt O02108 1-370)
chain: MPIDYSKWKDIEVSDDEDDTHPNIDTPSLFRWRHQARLERMAEKKMEQEKIDKEKGTTSKKMEELEKKLAAADVTDKSDIQKQIDEVKAQEEAWRKKEAELEEKERLEPWNVDTIGHEAFSTSRINKITEKKPQAPKTDEEDTHAMSTFFETHESLLEKMAVLKNGAKSTELFLAEHPHMASEYTANWLTIEALNAAIDFNEEKMKTMAEQCIIIQYLLELSKSLNAVATNTTVQKQFFKKFEAAEPVYMKHYQDEVKAFEDRLRTRAQTKRDAAMEEAEAEEKAERMKSAPGGIDPQEVFEQLPEEMRKCFEAHDIEALKGVAQKMDEEVFKYHFDRCIASGLWVPGKADDDDDDEEAAPAEEEPTTSS
On to B3, for which the binding result in test [4] is recorded as “binds”.

B4: UNC-16 (protein, UniProt P34609 1-1190)
chain: MACNLSPVNEMADSITSSTPSEIVYGGPGSPDEHRTMSDKVQTMASAIYRELETMIKVHGEDGVKTLMPLVVNVLEALDLAYLERDEQTAELEMLKEDNEQLQTQYEREKALRKQTEQKYIEIEDTLIGQNKELDKKIESLESIMRMLELKAKNATDHASRLEEREVEQKLEFDRLHERYNTLLRTHVDHMERTKYLMGSEKFELMQNMPLPNMQLRNKMGMAASVDASSIRGVSDLISAHMTQSTTMDVNLANHITNEDWQDEFSSDIEPSPRDIPQSSADALTSPITTKEPTPKREAASPKQSEEEEADETTSVDPKENNDLLGADLTDDESDWNGLGLIPRRHRPNEMLDDDDTSDDGSLGMGREVENLIKENSELLDMKNALNIVKNDLINQVDELNSENMILRDENLSRQMVSEKMQEQITKHEEEIKTLKQKLMEKENEQEEDDVPMAMRKRFTRSEMQRVLMDRNAYKEKLMELEESIKWTEMQRAKKMQQQQQNVNQKKSGGIWEFFSSLLGDSVTPPASSRGNRASSSRGKMTRSVEYIDPDMISERRAAERREQYKLVREHVKKEDGRIEAYGWSLPNVEAEVSSVPIPVCCRPLLDNEPSLKIWCATGVVLRGGRDERGQWIVGDPIYFAPASMKKTKTSNHRPELEDEIKRARNLDARESELDEWQSSSLVWVVSSNQGKSLIAVLDANNPNNIIETFPACDSHLLCIQAVSGVMEGEPEMNEEQSKKYLSGGGKIKDLPEGLDGTDLGACEWVELRKMEDSEDGVPTYCSNDMKPSPKRTRDFSISEVAPVDSSAPVKEDPLPPPANRPGGRAALPPHIRDAMSKYDGVSGQMSGALPTVWMGGQNQYIYIHSAVTAWKQCLRRIKMPDAVLSIVHYKSRIFAALANGTIAIFHRNKHGEWSDEGYHSLRVGSATSSVRSLCLVSTNIWATYKNCVVVLDAESLQIVKVFAAHPRKDSQVRNMQWVGAGVWLSIRLDSTLRLYHAHTYEHLQDVDIEPYVTKMLGTSKLDFSYMRTTALLVSNRRLWIGTGTGVIISVPFSGQLEKKIETKDSKRPAGPGGLVRVYGATSENATNDEKTNDDFIPYCNLAHAQLSFHGHKDSVKFFLGVPGASKNGEDESAEVTLRRMLIMSGGDGYIDFRIGEENEPELTGQSIRPRDMSHLIIWEVDAELPILSK
As for B4, the binding result in test [5] was “binds”.
